{
  "source": "paper PMC6120924",
  "about": "“YesU from Bacillus subtilis preferentially binds fucosylated glycans” (Scientific Reports, 2018)",
  "biological_target": "B. subtilis hypothetical cytosolic protein 031524 (YesU) (Bacillus subtilis) (UniProt O31524)",
  "assay": "SEC; purified His-tagged YesU in solution; molecular mass of approximately 25 kDa; column and buffer not told in the text shown (Fig. S1); both purified",
  "note": "These are yes or no findings as the source states them, for the method shown.",
  "data": [
    {"binder": "B. subtilis hypothetical cytosolic protein 031524 (YesU) (protein, UniProt O31524 1-220) MYKEGACLYRNPLRSKSDVKDWRMEGGGQISFDDHSLHLSHVQDEAHFVFWCPETFPDGIIVTWDFSPIEQPGLCMLFFAAAGIRGEDLFDPSLRKRTGTYPEYHSGDINALHLSYFRRKYAEERAFRTCNLRKSRGFHLAAMGADPLPSPDDADSPYRMKLIKDKGYVHFSINGLPILEWMDDGSTYGPVLTKGKIGFRQMAPMKAVYRDFAVHQAVRR", "values": [
      {"measurement": "binding", "value": "no binding"}
    ]}
  ]
}
